# Inconclusive results, whose numbers are uncertain, are shown with a selection of clear calls. Potencies of inconclusive entries are doubtful fits and often do not repeat. The source made the active and inactive calls. Calls follow the shape of the dose curve; as a rule, active = well fitted inhibition curve with a large enough effect; inconclusive = small, poorly fitted or top-dose-only effect; inactive = flat fitted curve, though single readings scatter. Where a SMILES comes first, the peptide text is derived from it. [ ]: non-standard residue; d: D form. Dolaproine = CO[C@@H]([C@@H]1CCCN1)[C@@H](C)C(=O)O; Dil = CC[C@H](C)[C@H](NC)[C@@H](CC(=O)O)OC; NMeV = CN[C@H](C(=O)O)C(C)C
# Assay: Identification of antibody-drug conjugate (ADC) payloads which are substrates of ATP-binding cassette drug efflux transporters: ABCG2-HEK293-R5 cell line
# Details: ABCG2-HEK293-R5 viability, CellTiter-Glo ATP luminescence, 48 h
# Excerpt: Antibody-drug conjugates (ADCs) feature an antibody recognizing a specific protein joined to a potent toxic payload. Numerous antibody-drug conjugates have received FDA approval; however, clinical resistance arises. Resistance mechanisms include decreased expression or mutation of the antibody target, impaired payload release, or increased expression of ATP-binding cassette (ABC) efflux transporters associated with multidrug resistance. We therefore sought to characterize the interaction of ABC multidrug transporters with ADC payloads. We performed a high-throughput screen with 27 common ADC payloads using cells lines expressing ABC transporters P-glycoprotein (P-gp, encoded by ABCB1) or ABCG2 (encoded by ABCG2). Confirmatory assays were also performed using cells transfected to express P-gp, ABCG2, or MRP1 (encoded by ABCC1). Several commonly used ADC payloads were substrates of P-gp, including calicheamicin gamma1, monomethyl auristatin E, DM1, and DM4. All the pyrrolobenzodiazepines tested - SJG136, SGD-1882, SG2057, and SG3199 - were substrates of P-gp, ABCG2, and MRP1. […] These findings highlight the risk of transporter-mediated resistance with certain ADC payloads and underscore the importance of selecting payloads that evade ABC transporter recognition in future ADC development.
# HEK-293 cells were transfected with empty vector (pcDNA) or vector containing the human ABCB1 (MDR-19), ABCG2 (R-5), or ABCC1 gene (MRP1) and were maintained in EMEM with 2 mg/mL G418 added to maintain transporter expression. The HeLa derivative KB-3-1 and the P-gp overexpressing KB-8-5-11 subline were maintained in DMEM; KB-8-5-11 additionally received 100 ng/mL colchicine. H460 parental cells were obtained from the Division of Cancer Treatment and Diagnosis Tumor Repository, National Cancer Institute at Frederick, MD and were cultured in RPMI. The ABCG2 expressing subline H460 MX20 was generated by selecting H460 cells in 20 nM mitoxantrone. Media in all cases was supplemented with 10% FBS and 1% penicillin-streptomycin. We explored 27 common ADC payloads, in two orthogonal, paired cell line sets-a drug selected and transfected set for each transporter--to identify substrates of the ABC transporters P-gp and ABCG2. Compounds were sourced from Levena Biopharma (San Diego, CA), Selleck Chem (Houston, TX), ChemieTek (Indianapolis, IN), or Microsource Discovery Systems (Gaylordsville, CT). Screening was performed as previously described. Briefly, cells were plated at a density of 500 cells/well in 1536 well plates with compounds added using a 1536-head pin tool (Kalypsys, San Diego CA). Cells were incubated with cytotoxic drugs and processed with CellTiter Glo reagent (Promega, Madison, WI) to determine viability after 48 hours. P-gp substrates were identified by comparing compound activity between paired sets of low-expressing (sensitive) and over-expressing (resistant) cell lines.
row,Structure (SMILES),Potency
1,COc1cccc2c1C(=O)c1c(O)c3c(c(O)c1C2=O)C[C@@](O)(C(=O)CO)C[C@@H]3O[C@H]1C[C@H](N)[C@H](O)[C@H](C)O1,"inconclusive: 59.8 nM [inhibitor, full curve]"
2,CN(C)CCOc1ccc2[nH]c(C(=O)N3C[C@@H](CCl)c4c3cc(O)c3ccccc43)cc2c1,active: 1.7 nM
3,CC[C@]1(O)CC2CN(CCc3c([nH]c4ccccc34)[C@@](C(=O)OC)(c3cc4c(cc3OC)N(C)[C@H]3[C@@](O)(C(=O)OC)[C@H](OC(C)=O)[C@]5(CC)C=CCN6CC[C@]43[C@@H]65)C2)C1 (stereo partly drawn),"inconclusive: 168 nM [inhibitor, full curve]"
4,CC[C@H](C)[C@@H]([C@@H](CC(=O)N1CCC[C@H]1[C@H](OC)[C@@H](C)C(=O)N[C@@H](Cc1ccccc1)C(=O)O)OC)N(C)C(=O)[C@@H](NC(=O)[C@@H](NC)C(C)C)C(C)C (H-[NMeV]V[Dil][Dolaproine]F-OH),"inconclusive: 1500 nM [inhibitor, full curve]"
5,COc1ccc(C2=CN3C(=O)c4cc(OC)c(OCCCOc5cc6c(cc5OC)C(=O)N5C=C(c7ccc(N)cc7)C[C@@H]5C=N6)cc4N=C[C@H]3C2)cc1,"inconclusive: 15 nM [inhibitor, full curve]"
6,Cc1nc(Nc2ncc(C(=O)Nc3c(C)cccc3Cl)s2)cc(N2CCN(CCO)CC2)n1,"inconclusive: 8450 nM [inhibitor, partial curve]"
7,CCc1c2c(nc3ccc(O)cc13)-c1cc3c(c(=O)n1C2)COC(=O)[C@]3(O)CC,"inconclusive: 189 nM [inhibitor, full curve]"
8,COc1cccc2c1C(=O)c1c(O)c3c(c(O)c1C2=O)C[C@@](O)(C(=O)CO)C[C@@H]3O[C@H]1C[C@H]2[C@H](O[C@@H]3[C@@H](OC)OCCN32)[C@H](C)O1,"inconclusive: 0.0475 nM [inhibitor, full curve]"
9,COc1cc2cc(c1Cl)N(C)C(=O)C[C@H](O)[C@]1(C)O[C@H]1[C@H](C)C1C[C@@](O)(NC(=O)O1)[C@H](OC)/C=C/C=C(\C)C2,"inconclusive: 2120 nM [inhibitor, full curve]"
10,COC(=O)c1cc2c3c(cc(O)c2[nH]1)N(C(=O)c1cc2cc(OC)c(OC)c(OC)c2[nH]1)CC3CCl (stereo not drawn),active: 4.2 nM
11,CC[C@H](C)[C@@H]([C@H](N)CC(=O)N1CCC[C@H]1[C@H](OC)[C@@H](C)C(=O)N[C@@H](Cc1ccccc1)c1nccs1)N(C)C(=O)[C@@H](NC(=O)[C@H](C(C)C)N(C)C)C(C)C,"inconclusive: 3.8 nM [inhibitor, full curve]"
12,CC[C@H](C)[C@@H]([C@H](N)CC(=O)N1CCC[C@H]1[C@H](OC)[C@@H](C)C(=O)N[C@@H](Cc1ccccc1)c1nccs1)N(C)C(=O)[C@@H](NC(=O)[C@@H](NC)C(C)C)C(C)C,inconclusive: 1.1 nM [inhibitor]
13,CCN[C@H]1CO[C@@H](O[C@H]2[C@H](O[C@H]3C#C/C=C\C#C[C@]4(O)CC(=O)C(NC(=O)OC)=C3/C4=C\CSSSC)O[C@H](C)[C@@H](NO[C@H]3C[C@H](O)[C@H](SC(=O)c4c(C)c(I)c(O[C@@H]5O[C@@H](C)[C@H](O)[C@@H](OC)[C@H]5O)c(OC)c4OC)[C@@H](C)O3)[C@@H]2O)C[C@@H]1OC,active: 3.8 nM

# Taken from above.
# For Potency, CC[C@H](C)[C@@H]([C@@H](CC(=O)N1CCC[C@H]1[C@H](OC)[C@@H](C)C(=O)N[C@@H](Cc1ccccc1)C(=O)O)OC)N(C)C(=O)[C@@H](NC(=O)[C@@H](NC)C(C)C)C(C)C (H-[NMeV]V[Dil][Dolaproine]F-OH) shows inconclusive: 1500 nM [inhibitor, full curve]
# For Potency, CC[C@H](C)[C@@H]([C@H](N)CC(=O)N1CCC[C@H]1[C@H](OC)[C@@H](C)C(=O)N[C@@H](Cc1ccccc1)c1nccs1)N(C)C(=O)[C@@H](NC(=O)[C@@H](NC)C(C)C)C(C)C shows inconclusive: 1.1 nM [inhibitor]
